A: 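Assay of Toxoplasma gondii numbers, read through their beta-galactosidase reporter with a colour substrate. Compounds at 10 µM. The record gives no direction; the compounds picked for IC50 retests had high values, so higher reads as fewer parasites. Size under these conditions: about 67,000 compounds, about 260 of them at 50% or above in at least one test.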
B: 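Histidine-tRNA ligase, Trypanosoma cruzi CL Brener (UniProt Q4DA54). Enzyme assay of histidyl-tRNA synthetase; the read-out is not stated. Tested at 30 µM. The record gives no direction; compounds that gave an IC50 in retests scored well above the rest, so higher reads as stronger inhibition. Size under these conditions: about 69,000 compounds, about 31 of them at 50% or above in at least one test.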

Chains of the proteins cited; added tags and fusions are not shown. Residues count along the entry.
UniProt Q4DA54, 1-478: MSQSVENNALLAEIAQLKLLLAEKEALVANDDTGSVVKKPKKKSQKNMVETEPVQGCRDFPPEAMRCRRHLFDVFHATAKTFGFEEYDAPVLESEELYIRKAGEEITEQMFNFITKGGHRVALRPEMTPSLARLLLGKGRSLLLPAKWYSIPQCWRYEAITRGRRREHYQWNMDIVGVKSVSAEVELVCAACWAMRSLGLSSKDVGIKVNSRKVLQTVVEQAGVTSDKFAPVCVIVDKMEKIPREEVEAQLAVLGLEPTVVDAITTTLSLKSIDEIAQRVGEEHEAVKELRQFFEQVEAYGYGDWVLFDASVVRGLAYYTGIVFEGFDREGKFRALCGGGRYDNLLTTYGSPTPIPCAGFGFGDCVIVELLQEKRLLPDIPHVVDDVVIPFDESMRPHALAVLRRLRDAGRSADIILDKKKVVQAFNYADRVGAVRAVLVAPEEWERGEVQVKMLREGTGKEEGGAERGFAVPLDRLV

Values are the deposited “Percent Effect”, in %.
The record does not define 0% and 100%; most values in the screen are far below 50% and negative numbers occur (in some assays of this library far below -100).
The compounds are a random part of those screened.

{"structure": "O=C(O)C(F)(F)F.[H][C@]12CN(Cc3ccc(C)cc3)C[C@@]1([H])S(=O)(=O)CC[C@@H]2C(=O)NCC1CC1", "A": -7.947}
{"structure": "Cc1cc(NC2CCCN(Cc3ccc(F)cc3)C2)n2nc(C)cc2n1", "stereo": "centres unmarked", "A": 11.08, "B": 9.836}
{"structure": "Cn1cccc(NC(=O)NCCOCc2ccccc2)c1=O", "A": -5.771, "B": 9.036}
{"structure": "[H][C@@]12CCC(=O)N(CC(C)C)[C@]1([H])CCN(C(=O)Cn1ccccc1=O)C2", "A": -3.92}
{"structure": "COc1ncccc1CN1C[C@H]2CCN(c3ccc(C)nn3)C[C@H]2C1", "B": 6.145}
{"structure": "O=C(O)C(F)(F)F.O=C(O)C(F)(F)F.[H][C@]12CCN(CC3CCOCC3)[C@@]1([H])CCC(COCc1cccnc1)O2", "stereo": "some centres unmarked", "A": -2.277}
{"structure": "COCCn1ccc(=O)c(OCC(=O)Nc2ccc(OC)cc2)c1C", "A": 1.213, "B": 1.98}
{"structure": "O=S(=O)(NCc1ccccc1)N1CCCN(c2ccncc2)CC1", "A": -0.7061, "B": 0}
{"structure": "Cc1ncc2c(c1-c1noc(-c3cscn3)n1)CCNC2", "A": 15.29, "B": -2.424}
{"structure": "NC(=O)C1(Cc2ccc(-c3ccccc3)cc2)CCCNC1", "stereo": "centres unmarked", "A": 6.525, "B": 9.398}
{"structure": "COCCOc1ccc(NC(=O)N2CCCC2c2ccncc2)cn1", "stereo": "centres unmarked", "A": 1.122, "B": 1.887}
{"structure": "CCc1noc(C(C)N2CCN(CC(=O)N3CCOCC3)CC2)n1", "stereo": "centres unmarked", "A": 5.456, "B": 8.543}
{"structure": "CC(C)NC(=O)[C@@H]1CN(Cc2ccc3c(c2)OCO3)C[C@H]2OCC[C@H]21", "B": 8.021}
{"structure": "O=C(CN1CCCCCC1=O)NCC1CCN(c2ccccc2)C1", "stereo": "centres unmarked", "A": 5.266, "B": 1.63}
{"structure": "CC(C)N1[C@H](Cn2cccn2)C[C@@H]2CN(C3CCOCC3)CC[C@@H]21", "B": 5.747}
{"structure": "OC(CNC1CCOCC1)c1ccc(Cl)c(F)c1", "stereo": "centres unmarked", "A": -3.523, "B": 8.333}
{"structure": "CNC(=O)Cc1csc(NC(=O)C2CSCCC(=O)N2)n1", "stereo": "centres unmarked", "A": -8.494, "B": 3.093}
{"structure": "Cn1cccc1C(O)CNC(=O)c1cccc(Cl)c1", "stereo": "centres unmarked", "A": 3.467, "B": 10.1}
{"structure": "O=C(CN1CCc2c(ncn2C2CC2)C1)NC1CCOCC1", "A": 25.81, "B": 3.704}
{"structure": "O=C(Cc1cccs1)N1CCC2(CCCN(CC3CCOCC3)C2)C1", "stereo": "centres unmarked", "A": 10.79, "B": 14.13}
{"structure": "CC(C)NC(=O)C1CN(C(=O)c2ccccc2)CC12CCOCC2", "stereo": "centres unmarked", "A": -3.824, "B": 2.521}
{"structure": "Cc1nc[nH]c1-c1nnc(SCC(=O)O)n1-c1ccccc1C(F)(F)F", "A": -1.818, "B": 9.091}
{"structure": "COCCNc1ncc(-c2cccc(OC)c2)c(-c2nccn2C)n1", "A": -9.525, "B": 2.682}
{"structure": "c1cc(-c2nnc(C3CCCN(CC4CCCCC4)C3)o2)ccn1", "stereo": "centres unmarked", "A": -33.39, "B": 3.745}
{"structure": "CCOC1COC2(CCN(Cc3cccnc3OC)CC2)C1.O=C(O)C(F)(F)F.O=C(O)C(F)(F)F", "stereo": "centres unmarked", "A": -19.75}
{"structure": "CCC1CCCCN1C(=O)c1ccnc(N(C)C)c1", "stereo": "centres unmarked", "A": 13.51, "B": 5.539}
{"structure": "CN(C)Cc1nc2c(o1)CN(C(=O)NCc1cccc(F)c1)C2.O=C(O)C(F)(F)F", "A": -9.623}
{"structure": "CN1C(=O)C(c2cccnc2)CC12CCN(CCO)CC2", "stereo": "centres unmarked", "A": 16.74, "B": 4.444}
{"structure": "CCN1CCOC(CNc2nccc(OC)n2)C1", "stereo": "centres unmarked", "A": 1.081, "B": 1.031}
{"structure": "CC(C)c1cc(N[C@H](C(N)=O)C(C)C)n2nccc2n1", "A": 4.901, "B": 6.061}
{"structure": "Cc1cnn(CC2CCN(CC(O)c3ccccc3F)CC2)c1", "stereo": "centres unmarked", "A": 0.2378, "B": 7.389}
{"structure": "c1ccc(-c2nnc(CN3CCCC3Cn3cncn3)o2)cc1", "stereo": "centres unmarked", "A": -19.86, "B": 4.571}
{"structure": "CCNc1cc2c(nn1)CCN(C(=O)c1ccc3c(c1)OCO3)C2", "A": -7.206, "B": 7.101}
{"structure": "CC(C)(C)C(=O)NC[C@H]1Cn2c(-c3ccccc3)cnc2CO1", "A": 11.07, "B": 3.261}
{"structure": "COCCC(=O)N1CCc2nc(N3CCOCC3)nc(NC(C)C)c2C1", "A": -0.6071, "B": 14.29}
{"structure": "CCn1nc(C)c(CCNC(=O)C2CCCN(C(C)=O)C2)c1C", "stereo": "centres unmarked", "A": 18.89, "B": 4.036}
{"structure": "Cc1nn(CC(=O)N2CCN(Cc3cn(C)nc3C)CC2)cc1Br", "A": -6.648, "B": 3.96}
{"structure": "COc1ncccc1C(=O)N1CCC(Nc2ccc(C)nn2)CC1", "A": 11.28, "B": 1.729}
{"structure": "CNC(=O)c1ccc(CN(C)C(=O)Nc2nnc(C(C)C)s2)cc1", "A": -8.258, "B": 11.11}
{"structure": "CNC1CCN(C2CCN(c3ccc(-c4ccco4)cc3)CC2)CC1", "A": 5.37, "B": 35.29}
{"structure": "CC(C)CN1CCCC2(CCN(c3ccc(C#N)cn3)C2)C1", "stereo": "centres unmarked", "B": 9.195}
{"structure": "CCc1c(C)nc2cc(C3CCN(Cc4cccc(F)c4)C3)nn2c1O", "stereo": "centres unmarked", "A": 2.408, "B": 14.89}
{"structure": "Cc1cnn(CC(C)NCC(=O)NCCOc2ccccc2)c1", "stereo": "centres unmarked", "A": -2.782, "B": 1.734}
{"structure": "CC(C)(C)n1nc(C2CC2)cc1C(=O)NCC1(C(N)=O)CCOCC1", "A": -11.18, "B": 1.235}
{"structure": "Cc1ccc(C(=O)N2CCC(c3nccn3Cc3ccncc3)CC2)s1", "A": 5.839, "B": -3.518}
{"structure": "CCN(Cc1ccc2c(c1)OCCO2)C(=O)NCc1nncn1CC", "A": -27.99, "B": 4.871}
{"structure": "COc1cccc(CN2CC(O)CN(C(=O)C(C)(C)C)CC2=O)c1OC", "stereo": "centres unmarked", "A": -8.759, "B": 0}
{"structure": "CN(CC1CCCO1)C1CCN(CCc2ccccn2)CC1", "stereo": "centres unmarked", "A": 1.508, "B": 4.215}

From ChEMBL document CHEMBL3988442, “University of Dundee, Small-Polar-MMV Screening Library” (2021).